Results published in CN114605540A.
These are yes or no findings as the source states them, for the method shown. Some results given as binding are weak or reduced against the parent protein; the word gives no strength.

Protein sequences, listed by entry. Tags and fused reporters are not part of them. Residues count along the entry.
UniProt P10747, residues 19-152: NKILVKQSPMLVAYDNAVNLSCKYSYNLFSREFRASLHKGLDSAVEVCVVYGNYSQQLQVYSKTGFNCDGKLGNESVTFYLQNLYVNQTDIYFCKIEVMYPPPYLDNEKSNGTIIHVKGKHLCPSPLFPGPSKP

These binders were tested against CD28 ECD蛋白 (UniProt P10747) (assay: monoclonal phage ELISA on coated CD28, two rounds of verification).

| binding | Binder |
| --- | --- |
| binds | P2-5C (VHH) VHH: AVQLVESGGGLVQAGDSLRLSCAASWGTLSSYYMGWFRQAPGAEREWVGGISRRGDSIFYGDSVKGRTTISRDNAKNTVYLQMNSLKPEDTAVYYCAAASERLVARLSWEYDYWGQGTQVTVSS |
| binds | P2-7F (VHH) VHH: AVQLVESGGGLVQSGGSLRLSCAASRSIFRIEVMGWYRQAPGKQRELVAGITSGGLTNYAGSVKGRFTISRDNAENTVYLQMDSLKPEDTAVYYCNAQTRRLGGLPGGSWGQGTQVTVSS |
| binds | P1-1C (VHH) VHH: AVQLVESGGGLVQAGGSLRLSCAASGLTFSHYAMGWFRQAPGKEREFVAAISWSGGSTYYADSVKGRFTISRDNAKNTVFLQMNSLKPEDTAVYYCAAGVLYIGDYPGSYQYDYWGQGTQVTVSS |
| binds | P1-7F (VHH) VHH: AVQLVESGGGLVQAGGSLRLSCAASGLTFGHYAMGWFRQAPGKEREFVAAISWSGGSTYYADSVKGRFTISRDNAKNTVFLQMNSLKPEDTAVYYCAAGVLYIGDYPGSYQYDYWGQGTQVTVSS |
| binds | P1-2F (VHH) VHH: AVQLVESGGGLVRAGGSLRLSCAASGLTFSHYAMGWFRQAPGKEREFVAAISWSGGSTYYADSVKGRFTISRDNAKNTVFLQMNSLKPEDTAVYYCAAGVLYIGDYPGSYQYDYWGQGTQVTVSS |
| binds | P1-5A (VHH) VHH: AVQLVESGGGLVQAGGSLRLSCAASGLTFSHYAMGWFRQAPGKEREFVAAISWSGGSTYYADSVKGRFTISRDNPKNTVFLQMNSLKPEDTAVYYCAAGVLYIGDYPGSYQYDYWGQGTQVTVSS |
| binds | P1-10B (VHH) VHH: AVQLVESGGGLVQAGGSLRLSCAASGRTFRAYAMGWFRQAPGKEREFVAAISWSGGSTYYADSVKGRFTISRDNAKNTVYLQMNSLKPEDTAVYYCAASPFFDSSWYDGWAPGGAGRGEYDYWGQGTQVTVSS |
